Test results as given in patent US8895032B2, “Dendritic nano-antioxidants” (Central Michigan University, priority 2009, dated 2014).
Some entries share one result that the patent states for a list of compounds.

Tests used:
[1] = beta-carotene-linoleate assay; type: biochemical; details: 12 μM, after 180 min incubation at 50° C.
Excerpt: The ability of the dendritic antioxidants 1, 2, and 3 to protect linoleic acid against free radical damage was examined by the beta-carotene-linoleate model (Jayaprakasha, G. K., et al. Food Chem. 2001, 73, 285, incorporated herein by reference in its entirety). In the absence of an antioxidant, hydroperoxides formed from linoleic acid oxidation bleach the highly unsaturated beta-carotene by a free-radical-mediated phenomenon. The bleaching of the reddish-orange color of beta-carotene was monitored at 470 nm in the presence of various concentrations of antioxidant. The % absorbance (corrected for control without antioxidant) was determined at each antioxidant concentration after incubation at 50° C. for 180 min. The % A470 nm values were determined as follows: % A470 nm=[(At(180 min)/At(0 min))×100]−[(Ac(180 min)/Ac(0 min))×100], wherein At(180 min)=absorbance at 470 nm of antioxidant sample incubated at 50° C. for 180 min, At(0 min)=absorbance at 470 nm of antioxidant sample incubated at 50° C. for 0 min, Ac(180 min)=absorbance at 470 nm of control sample (without antioxidant) incubated at 50° C. for 180 min, and Ac(0 min)=absorbance at 470 nm of control sample (without antioxidant) incubated at 50° C. for 0 min. […] In FIG. 24, protection of linoleic acid from oxidation by various antioxidants is shown for compound 1 (□), compounds 2 and 3 (•), quercetin (x), and Trolox (Δ).

[2] = FRAP assay (reduction of Fe(III) to Fe(II)); type: biochemical
Protocol: The FRAP assay was performed as previously described (Pulido, et al. J. Agric. Food Chem. 2000, 48, 3396-3402, incorporated herein by reference in its entirety). In the FRAP assay, ferric was reduced by the antioxidant to ferrous via electron transfer (Benzie et al., Anal. Biochem. 1996, 239, 70-76, incorporated herein by reference in its entirety). This assay measured the redox potential of an antioxidant which is used as an estimate of antioxidant efficiency and expressed as a FRAP value. […] The compound 1 as well as the other antioxidants was dissolved in methanol. […] Reaction kinetics of the compound 1 and other antioxidants were obtained by plotting the change in slopes at various times and are shown in FIG. 18. […] This time-dependent increase in absorbance was previously reported (Pulido, et al. J. Agric. Food Chem. 2000, 48, 3396-3402, incorporated herein by reference in its entirety) and was especially significant with polyphenolic compounds. […] However, the FRAP value increased with time, reaching 2.5 in 60 min. […] J. Agric. Food Chem. 2000, 48, 3396-3402, incorporated herein by reference in its entirety). […] EC1 values, and therefore ferric reducing ability, were lower at longer reaction times as expected from the kinetic behavior of the antioxidants (Pulido, et al. J. Agric. Food Chem. 2000, 48, 3396-3402, incorporated herein by reference in its entirety).

DPPH radical assay = test: DPPH radical assay
Protocol: The DPPH assay was one of three electron transfer (ET) assays used to determine the antioxidant potential of compound 1 (described in Example 6) in comparison to its monomeric counterpart (syringaldehyde) as well as popular antioxidants. In an ET assay, an antioxidant donates electron(s) to a molecular probe, thus reducing it. From the assay, thermodynamic conversion of antioxidant to antioxidant radical (oxidation) is measured during a fixed time period.
The reduction of DPPH radical was determined for ascorbic acid, Trolox, syringaldehyde, and the compound 1 described in Example 6 as previously reported (Brand-Williams, et al. Lebensm.-Wiss U.-Technol. 1995, 28, 25-30, incorporated herein by reference in its entirety). […] Antioxidant sample (10 μL) was added to 1.0 mL of reagent and the absorbance was monitored at 515 nm until a plateau was reached. […]
The DPPH• scavenging capacity of each antioxidant was evaluated from the plot of the percentage DPPH• remaining when the kinetics reached a steady state as a function of the molar ratios of antioxidant to DPPH•. […]
Antioxidant capacity of the compounds was assessed by the DPPH assay (Brand-Williams, et al. Lebensm. Wiss. Technol. 1995, 28, 25, incorporated herein by reference in its entirety). […]
The free-radical scavenging ability of the antioxidants was evaluated by the DPPH assay, as described above in Example 7.

SMILES	% A470 nm [1] [%]	time to maximum slope / plateau in FRAP [2] [min]	other results
COc1cc(C=O)cc(I)c1O [5-iodovanillin]	< 5	–	–
O=C1O[C@H]([C@@H](O)CO)C(O)=C1O [Ascorbic acid, ascorbic acid]	–	≤ 5	–
COc1cc(CN(Cc2ccc(CN(Cc3cc(OC)c(O)c(OC)c3)Cc3cc(OC)c(O)c(OC)c3)cc2)Cc2cc(OC)c(O)c(OC)c2)cc(OC)c1O [Compound 1]	–	–	gradual drop of DPPH• after initial phase (DPPH radical assay; 50 μM syringaldehyde, 5 μM compound 1): 1-2 %/min
Cc1c(C)c2c(c(C)c1O)CCC(C)(C(=O)O)O2 (stereo not drawn) [Trolox, 6-hydroxy-2,5,7,8-tetramethylchroman-2-carboxylic acid]	–	≤ 5	–
COc1cc(C=O)ccc1O [vanillin]	< 5	–	IC50 (DPPH radical assay; read-out: DPPH IC50 at 120 min, Example 15): > 100 µM
